Test results: paper PMC11061198, “Polyphosphate and tyrosine phosphorylation in the N-terminal domain of the human mitochondrial Lon protease disrupts its functions” (Scientific Reports, 2024)
Results are given in words; binding and its absence hold for the method and conditions named. Some results given as binding are weak or reduced against the parent protein; the word gives no strength. Sequences can lack the tags named with a protein.

The chains behind the UniProt entries cited, without tags or fusion partners. Residues count along the entry.
UniProt P36776, residues 68-959: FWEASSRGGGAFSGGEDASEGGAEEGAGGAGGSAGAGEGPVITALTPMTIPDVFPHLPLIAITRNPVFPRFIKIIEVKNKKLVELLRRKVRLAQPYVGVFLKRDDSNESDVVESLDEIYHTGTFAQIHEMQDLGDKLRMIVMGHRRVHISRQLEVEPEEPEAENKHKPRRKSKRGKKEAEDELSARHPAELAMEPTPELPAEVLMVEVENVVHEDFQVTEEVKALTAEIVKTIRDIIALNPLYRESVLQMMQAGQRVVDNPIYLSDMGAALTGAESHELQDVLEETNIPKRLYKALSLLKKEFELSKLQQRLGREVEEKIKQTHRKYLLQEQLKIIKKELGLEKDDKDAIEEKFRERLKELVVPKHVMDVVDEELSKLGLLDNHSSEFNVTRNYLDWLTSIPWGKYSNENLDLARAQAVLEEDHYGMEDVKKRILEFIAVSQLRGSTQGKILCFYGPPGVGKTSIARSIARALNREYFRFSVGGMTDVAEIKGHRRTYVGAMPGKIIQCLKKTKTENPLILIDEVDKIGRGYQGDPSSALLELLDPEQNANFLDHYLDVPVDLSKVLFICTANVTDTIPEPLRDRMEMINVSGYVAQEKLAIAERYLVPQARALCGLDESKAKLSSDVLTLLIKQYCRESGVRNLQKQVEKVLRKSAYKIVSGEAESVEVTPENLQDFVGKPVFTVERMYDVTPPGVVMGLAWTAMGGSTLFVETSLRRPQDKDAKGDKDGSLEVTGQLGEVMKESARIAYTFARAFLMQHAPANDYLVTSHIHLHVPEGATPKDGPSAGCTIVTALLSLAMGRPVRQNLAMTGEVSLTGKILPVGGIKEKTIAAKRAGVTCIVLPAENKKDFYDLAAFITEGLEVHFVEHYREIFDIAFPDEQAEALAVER

Molecular target: T1, Abf2, Saccharomyces cerevisiae TFAM homologue (Saccharomyces cerevisiae) (UniProt Q02486)
T1 sequence: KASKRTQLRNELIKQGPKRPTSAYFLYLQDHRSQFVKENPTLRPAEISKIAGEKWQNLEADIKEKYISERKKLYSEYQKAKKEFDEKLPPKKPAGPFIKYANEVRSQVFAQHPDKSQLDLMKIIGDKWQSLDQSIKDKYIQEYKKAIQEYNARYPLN
Experiment: cross-linking; hLon and Abf2 in a 1:1.6 mass ratio, 0.1% (v/v) glutaraldehyde, 40 min, room temperature, 2 mM ATP, 10 mM MgCl2; 5% SDS-PAGE, immunoblot with anti-Abf2 antibody; both purified

**Q.** Which binding does the source give for “wild-type human mitochondrial Lon protease lacking the N-terminal MTS, hexahistidine-tagged (from UniProt P36776 68-959) (enzyme)” here?
**A.** The binding was “binds”.
